{
  "source": "patent US9938316B2",
  "about": "“Selective inhibitors of α2 isoform of Na,K-ATPase and use thereof for reduction of intra-ocular pressure and as cardiotonic agents” (priority 2013, dated 2018)",
  "origin": "cited, not measured here",
  "key": {"[1]": {"test_system": "Na,K-ATPase α2β1 isoform complex", "settings": "purified isoform protein complexes; cited from earlier work"}, "[2]": {"test_system": "Na,K-ATPase isoforms (α1β1, α2β1, α3β1)", "settings": "dissociation constants, membranes; cited from earlier work"}},
  "note": "Some of these results come from one statement about several compounds together.",
  "data": [
    {"smiles": "C[C@H]1O[C@@H](O[C@H]2[C@@H](O)C[C@H](O[C@H]3[C@@H](O)C[C@H](O[C@H]4CC[C@@]5(C)[C@H](CC[C@@H]6[C@@H]5CC[C@]5(C)[C@@H](C7=CC(=O)OC7)CC[C@]65O)C4)O[C@@H]3C)O[C@@H]2C)C[C@H](O)[C@@H]1O", "note": "[digitoxin]", "values": [
      {"measurement": "Fold lower Ki values for α2 compared to α1", "setting": "[1]", "value": "3-4 fold"},
      {"measurement": "Selectivity of KD for α2/α3 over α1", "setting": "[2]", "value": "3-4 fold"}
    ]}
  ]
}
